# According to PubChem BioAssay AID1347076 (National Center for Advancing Translational Sciences (NCATS), 2019):
# In all, about 400,000 compounds went through this assay and about 13,000 (3.2%) were called active. The shares of active, inactive and inconclusive entries below differ from those in the screen. Calls follow the shape of the dose curve; as a rule, active = well fitted cell-killing curve with a large enough effect; inconclusive = small, poorly fitted or top-dose-only effect, or effect the other way; inactive = flat fitted curve, though single readings scatter. Potencies of inconclusive entries are doubtful fits and often do not repeat.
# Assay: qHTS assay for MDR1-selective chemotherapeutics: Primary screen using the drug-selected MDR subline cells KB-V1; also: nearly all actives have a fitted effect of over 60% in size
# Conditions: KB-V1 MDR cells viability, CellTiter-Glo, 72 h; activity change, negative = cytotoxicity: at 46.1 µM (top of the series)
# Procedure, shortened: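 qHTS viability screen in drug-selected KB-V1 MDR cells: 72 h compound treatment at 37 degrees C, ATP luminescence end point.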
# % is scaled to controls: 0 for no effect and ±100 for the full control effect; potency is read from the fitted curve at half-maximal effect.
Structure (SMILES),Potency,"activity change, negative = cytotoxicity"
Cc1cc(NC(=O)c2cc(-c3cccs3)nc3ccccc23)no1,"inconclusive: 18.4 µM [cytotoxic, single point]",–
CC1(C(=O)Nc2ccc3c(c2)OCCO3)CCN1Cc1csc2ccccc12 (stereo unspecified),inactive,–
Cn1c(CSc2nc3ccc(Br)cc3[nH]2)nc2ccccc21,inactive,–
NC(=O)CSc1nc2cc(Cl)ccc2c(=O)n1C1CCCCC1,"inconclusive: 23.1 µM [cytotoxic, single point]",–
O=C(c1ccc(F)cc1F)N1CCN(c2n[nH]c(=O)[nH]c2=O)CC1,"inconclusive: 29.1 µM [rising, single point]",–
COC(=O)c1ccc(N(C(=O)c2ccco2)C(C(=O)NC2CCCC2)c2ccco2)cc1 (stereo unspecified),inactive,–
Cc1ccc(S(=O)(=O)N2CCN(C(=O)c3cc(C4CC4)nc4c3cnn4C(C)C)CC2)cc1,inactive,–
Cc1nn(CC(=O)N2CCN(c3cccc(C(F)(F)F)c3)CC2)c(=O)c2cccn12,inactive,–
Cc1ccsc1CN(C(=O)c1ccccc1)C1CCS(=O)(=O)C1 (stereo unspecified),inactive,–
CCOc1ccc(OCC)c(NC(=O)Nc2ccc3c(c2)N(C)C(=O)CS3)c1,–,inconclusive: -31.6%
COC(=O)c1sccc1S(=O)(=O)N(CC(=O)NCc1ccc(F)cc1)c1ccc(Cl)cc1,inactive,–
CS(=O)(=O)N1CCC(C(=O)c2cccc(Cl)c2)CC1,"inconclusive: 29.1 µM [cytotoxic, single point]",–
COc1ccc2[nH]c3nc(SCC(=O)NNC(=O)c4ccc(OC)c(OC)c4)nnc3c2c1,–,inconclusive: -11.3%
CN(C)c1ccc(Cc2cc3c(O)ccc(O)c3cc(Cc3ccc(N(C)C)cc3)c2=O)cc1,inactive,–
CC1CCN(C(=O)COC(=O)CCC(=O)c2ccc(F)cc2)CC1,"inconclusive: 20.6 µM [rising, single point]",–
O=C(CCSc1ccccn1)c1ccccc1,inactive,–
O=C(CSCc1c(Cl)cccc1Cl)Nc1ccc2c(c1)OCO2,"inconclusive: 20.6 µM [cytotoxic, partial curve, poor fit]",–
O=C(CSc1ccsc1[N+](=O)[O-])N1CCN(c2ccccc2)CC1,"inconclusive: 23.1 µM [cytotoxic, single point]",–
Cc1ccc(/C=N/n2c(-c3ccc(Cl)cc3)n[nH]c2=S)s1,inactive,–
CC1CCC(=C(C#N)c2nc(-c3cc4ccccc4oc3=O)cs2)CC1 (stereo unspecified),"inconclusive: 11.6 µM [cytotoxic, partial curve]",–
CCOc1ccc(NC(=S)NC(=O)/C=C/c2ccc(C)cc2)c([N+](=O)[O-])c1,active: 11.6 µM,–
CCOC(=O)c1c(C)[nH]c(C(=O)C(C)Sc2ccc(Cl)cc2)c1C (stereo unspecified),"inconclusive: 18.4 µM [cytotoxic, single point]",–
Cc1cc(C)nc(N2CCN(c3nc(-c4ccccc4)nc4c3oc3ccccc34)CC2)n1,inactive,–

Structure (SMILES),Potency,"activity change, negative = cytotoxicity"
Cc1ccccc1NC(=S)N=Nc1c(O)n(C)c2ccc(S(=O)(=O)N3CCOCC3)cc12,"inconclusive: 4.11 µM [cytotoxic, partial curve, poor fit]",–
CCc1c(C)nc(N2CCN(c3ccccc3F)CC2)[nH]c1=O,inactive,–
COc1ccc2[nH]c(C(=O)NCc3ccccc3)c(C)c2c1,"inconclusive: 32.6 µM [cytotoxic, single point]",–
Cc1ccc(S(=O)(=O)N2CCC(=O)N([C@H](COCc3ccc(Cl)c(Cl)c3)Cc3ccccc3)CC2)cc1,inactive,–
CCOc1ccccc1C(=O)NC(C(=O)OCn1nnc2ccccc2c1=O)C(C)C (stereo unspecified),inactive,–
COc1ccc(CCN(C)C(=O)CSc2ncnc3sccc23)cc1OC,"inconclusive: 10.3 µM [cytotoxic, partial curve]",–
Cc1cccc(NC(=O)CSc2nc3ccc(NC(=O)COc4ccccc4F)cc3s2)c1,"inconclusive: 10.3 µM [cytotoxic, partial curve]",–
Cc1ccc(NC(=O)C2CCCN2S(=O)(=O)c2ccc3c(c2)CCCC(=O)N3)cc1Cl (stereo unspecified),inactive,–
OC(CC1CC12c1ccccc1-c1ncccc12)(c1ccccc1)c1ccccc1 (stereo unspecified),"inconclusive: 23.1 µM [cytotoxic, partial curve, poor fit]",–
CC(=O)c1c(C)[nH]c(C(=O)COc2ccc3ccc(=O)oc3c2)c1C,"inconclusive: 23.1 µM [cytotoxic, single point]",–
O=C(NCC1CCCO1)c1ccc2c(c1)N(Cc1ccc(Cl)cc1)CCS2 (stereo unspecified),"inconclusive: 11.6 µM [cytotoxic, partial curve, poor fit]",–
Oc1ccccc1-c1nnc(-c2ccc(C(F)(F)F)cc2)o1,"inconclusive: 29.1 µM [cytotoxic, single point]",–
CCN(CC)c1ccc(/C=N/NC(=O)Nc2nonc2N)cc1,"inconclusive: 7.31 µM [cytotoxic, partial curve, poor fit]",–
O=C(CCSCc1ccccc1F)NCc1ccc(F)cc1,"inconclusive: 16.4 µM [rising, partial curve, poor fit]",–
Cc1cc(NC(=S)N(CCN2CCOCC2)Cc2ccccc2F)ccc1Cl,"inconclusive: 7.31 µM [cytotoxic, partial curve]",–
Cc1ccc(NC(=O)C(C)[n+]2ccccc2)cc1[N+](=O)[O-] (stereo unspecified),"inconclusive: 8.2 µM [rising, partial curve]",–
NC(=O)c1ccsc1NC(=O)COC(=O)COc1ccccc1[N+](=O)[O-],"inconclusive: 29.1 µM [rising, single point]",–
CS(=O)(=O)c1nc(-c2ccccc2)cc(C(F)(F)F)n1,"inconclusive: 29.1 µM [cytotoxic, single point]",–
COc1ccc(N2C(=S)N(C(=O)c3ccccc3)C(=Nc3ccccc3)C2=Nc2ccccc2)cc1,"inconclusive: 20.6 µM [cytotoxic, single point]",–
CCCc1c(C(=O)Nc2cc(C(C)(C)C)on2)cnn1-c1ccccc1,inactive,–
O=C(O)c1ccccc1Nc1cc(Cl)c2nonc2c1[N+](=O)[O-],inactive,–
O=C(NCCc1ccccc1)c1ncn[nH]1,"inconclusive: 29.1 µM [rising, single point]",–
COc1ccc(/C=N/NC(=O)c2cc3c(ccc4ccccc43)o2)cc1OC,"inconclusive: 16.4 µM [rising, partial curve]",–

# Look-ups from above.
# In Potency, Oc1ccccc1-c1nnc(-c2ccc(C(F)(F)F)cc2)o1 is entered as inconclusive: 29.1 µM [cytotoxic, single point]
# In Potency, O=C(NCCc1ccccc1)c1ncn[nH]1 is entered as inconclusive: 29.1 µM [rising, single point]
